Laboratory results: article PMC10163288
The other results are listed elsewhere or left out.

B1: il10ra_site1_sap_11_mot_HHH_b2_06142_af2_000000101_0001_1_18_H_._HHH_b1_08444_af2_0001_0000500022_0000002_0_0001 (protein)
chain: SSSSSDEEELREEVERLLEEAEHIPDHREVAKLLQRATRLAIQLGDEELLQLVWRVVKKLSSSSS
B2: il10ra_site1_normal_mot_HHH_b2_00440_af2_000000075_0001_42_56_H_._HHH_b1_02927_af2_0001_0000100006_0000002_0_af2pred_0001 (protein)
chain: SSSSSEEEEEVRELLRQAEEALENNDVELLYRLLRRAVEIAAQINNQELLKLVLRVSREAISSSS
B3: il10ra_site1_sap_15_mot_HHH_b2_01447_af2_000000258_0001_1_20_H_._HHH_b2_06257_0001_0000200016_0000001_0_0001 (protein)
chain: SSSSNDEALELSQKAFHAALRGDFEQAEELLEEALELAREAGNEELAKQIERLLETVRRQGSSSS
B4: il10ra_site1_normal_mot_HHH_b1_05937_af2_000000262_0001_20_37_H_._HHH_b1_00814_af2_0001_0000200016_0000001_0 (protein)
chain: SSSSDEEEEELRKLLEELEKLIEEGDREKVLRLAIRILRLAFRLSDEEVVQEVWRLALESASSSS
B5: il10ra_site1_sap_23_mot_9c3e5e2d2b9ffb70dc788f52fbfab6d5_0001_1_000000198_0001_1_14_H_._HHH_b1_04873_0001_0000200016_0000002_0_0001 (protein)
chain: SSSSSSDIAELAQEALHRAIQLGDEEVFQAIWELAKKYAREGDPRYREELEELLEELRSSSSSSS
B6: il10ra_site1_normal_mot_HHH_b1_03094_000000294_0001_1_20_H_._HHH_b1_05478_af2_0001_0000100005_0000001_0 (protein)
chain: SSSSDEENQEALELSLEALRLALRGDPEKAREVLEEAFELAERANNERLLRIIEELLEALHSSSS
B7: il10ra_site1_normal_mot_8756ee2cf497b5429c717dfc0c0bcfd6_0001_000000186_0001_1_13_H_._HHH_b2_06136_af2_0001_0000400011_0000001_0_af2pred_0001 (protein)
chain: SSSSSSRLFELLREIAELLHEGNPEEAEELIEEAEELAKERNDDVARAQLEFLRKIVERLSSSSS
B8: il10ra_site1_normal_mot_8756ee2cf497b5429c717dfc0c0bcfd6_0001_000000186_0001_1_13_H_._HHH_b1_00839_0001_0000300027_0000001_1 (protein)
chain: SSSSDEEFKLAEEVIREALQLYEEGNEEEAEKLVEEAIRLAEELNNDVILFQLRYLLRHLESSSS
B9: il10ra_site1_sap_22_mot_HHH_b2_03425_000000200_0001_22_39_H_._HHH_b2_06606_0001_0000100007_0000002_0_0001_af2pred_0001 (protein)
chain: SSSSSEEEEEARELAERIKELIKEGDEEEVQKLFHELWELAVKYNDKEAAKLLIELLELRSSSSS
B10: il10ra_site1_normal_mot_HHH_b1_03031_af2_000000117_0001_17_33_H_._HHH_b1_01503_af2_0001_0000500014_0000001_0_af2pred_0001 (protein)
chain: SSSSDEERLEELEERAKELIEEGDHEEAKKVLLEALFLAAKLKDPEVILKLLRLTAEVLQLSSSS
B11: il10ra_site1_sap_15_mot_HHH_b2_01205_000000166_0001_1_19_H_._HHH_b1_04361_0001_0000300020_0000001_0_0001_af2pred_0001 (protein)
chain: SSSSDEDEKRAELTARFARHAYEQGDEEAAKYLLKAAVEILRKAGNEELVEELEEILRQISSSSS
B12: il10ra_site1_normal_mot_HHH_b1_05326_000000242_0001_1_20_H_._HHH_b1_01966_0001_0000100019_0000001_0 (protein)
chain: SSSSSDNEEALHLSVEAFRLLLRGDPEEARRVLEEALELAEEAGNERLARIIEEQLRLASSSSSS
B13: il10ra_site1_normal_mot_HHH_b1_02997_000000220_0001_39_52_H_._HHH_b1_02580_0001_0000100023_0000001_1 (protein)
chain: SSSSTEESHRIYELLRRAAELRHEGNPEEARELLEEAEELAEEAGNENFLWNIEYLLREVNSSSS
B14: il10ra_site1_sap_16_mot_HHH_b2_08265_af2_000000206_0001_22_38_H_._HHH_b1_07741_af2_0001_0000300015_0000001_1_0001 (protein)
chain: SSSSSDELEERVEELLEEAKKIEDPARRAHVMIQAYALANRLNDPELEEEVREVARELVSSSSSS
B15: il10ra_site1_sap_16_mot_HHH_b1_00563_000000253_0001_39_52_H_._HHH_b1_07572_af2_0001_0000400013_0000001_0_0001 (protein)
chain: SSSSSSEEEERAEELIEEAKEIPDPREFVEALQRAVRLAFRANDEELLRRIWELLREFADSSSSS
B16: il10ra_site1_sap_23_mot_HHH_b1_02232_000000288_0001_23_39_H_._HHH_b1_07306_af2_0001_0000100001_0000003_0_0001 (protein)
chain: SSSSSDEEEEEFKELAREAEEAKNADERYEIIKRLIEIASELNNEELEELVHRIIRKLLRSSSSS
B17: il10ra_site1_sap_28_mot_HHH_b2_01776_000000118_0001_38_52_H_._HHH_b1_02755_0001_0000100001_0000001_0_0001_af2pred_0001 (protein)
chain: SSSSDEELLEHLLRALKQVVELGDEERAKLTIKFIKRLAELHNDEEVEKRLRELEELVEELSSSS
B18: il10ra_site1_normal_mot_HHH_b1_06994_000000193_0001_40_55_H_._HHH_b1_02695_0001_0000600075_0000002_0 (protein)
chain: SSSSDLEELVRAALILAEQAVKNGDPRAARRLLEALLEALEKDNDPELVRLVEELLEEIRGSSSS
B19: il10ra_site1_normal_mot_HHH_b1_08697_af2_000000298_0001_1_18_H_._HHH_b1_03920_0001_0000300021_0000001_0_af2pred_0001 (protein)
chain: SSSSSKSEIAARFHAEILELALEAGDEESIRAARRALEALAELTNDELARELLEEIREKLSSSSS
B20: il10ra_site1_normal_mot_HHH_b1_06363_000000103_0001_21_38_H_._HHH_b1_06214_af2_0001_0000400025_0000002_0_af2pred_dldesign_0_af2pred (protein)
chain: SSSSSSEKRKEVEELIAEAEKLEDPNKRYELLVKAYALAKEIKDEELVARVTARLRAFSASSSSS
B21: il10ra_site1_normal_mot_HHH_b1_05185_000000011_0001_22_39_H_._HHH_b1_02178_0001_0000100004_0000001_0_1_af2pred_dldesign_0_af2pred (protein)
chain: SSSSEELKERALRGLDTLHRARDPEALRRAAEYYAAQLEAAGYPEEAKEVLDRAEALLAELSSSS
B22: il10ra_site1_sap_29_mot_HHH_b1_04693_000000238_0001_19_36_H_._cdd71eb80049a0ee137549ea9904a389_0001_0001_0000400011_0000001_0_0001 (protein)
chain: SSSSDVEEEVERLLREAEQLAEEGDPEKVSRLLQEAVHFAWRRSNEELLREVWEVVKRLASSSSS
B23: il10ra_site1_normal_mot_6bb093d23f5042b6c551c363657da53b_0001_1_000000153_0001_51_65_H_._HHH_b2_03328_0001_0000100004_0000001_0 (protein)
chain: SSSSDEEEEEVRRLYEEVERLLEEGNPEEALEVLVHLSRLAVEINDPEATKLVLELAELLKSSSS
B24: il10ra_site1_sap_13_mot_HHH_b2_00134_af2_000000004_0001_38_52_H_._35c8b62d970cef76564607aec484dc10_0001_1_0001_0001000013_0000001_0_0001_af2pred_0001 (protein)
chain: TLEILVRFALENGNPEALRFLLELLLREAKQAGDEKTEELIEEALEALEEGDPERVRELVERVLK
B25: il10ra_site1_normal_mot_HHH_b2_07144_000000289_0001_1_18_H_._HHH_b1_08504_0001_0000100005_0000001_0 (protein)
chain: SSSSDESQELYELSRRAAELLREGNPEEAREVVQEAIELAEEINNEVVLHNLEYLLRELESSSSS
B26: il10ra_site1_normal_mot_HHH_b1_01821_000000158_0001_23_39_H_._HHH_b1_08068_af2_0001_0000400011_0000002_0 (protein)
chain: SSSSSDEEEKVRELLEEAEEIEDHEERLEVLLEALRLAIELQNPELLQLVWEVFRRLAGSSSSSS
B27: il10ra_site1_sap_12_mot_HHH_b1_03031_af2_000000117_0001_17_33_H_._91cf7d669ae9415c4ca5d6db8d18144b_0001_af2_0001_0000100002_0000002_0_0001_af2pred_0001 (protein)
chain: SSSSDEERLEELLEILKELVEKNDEERFKEVYHEAMELAIKLRDEEALYELTRLFALLNTSSSSS
B28: il10ra_site1_sap_22_mot_HHH_b1_02062_000000185_0001_1_20_H_._HHH_b1_03051_af2_0001_0000200007_0000001_0_0001 (protein)
chain: SSSSDEVEEEIYRLIMAIARAMIRGDEERVKELLEELEELAEELNDPVARHALKIVRNALSSSSS
B29: il10ra_site1_sap_21_mot_cff26900b2948c323735a169404cbef0_0001_1_000000271_0001_18_33_H_._3f00252fc529791599e8cc5ffc065fdd_0001_0001_0000500019_0000002_0_0001_af … (protein)
chain: SSSSTNERITELIRKAAEAYGAGKPEEALALLNEAKALADAEGIKSYQPTIDYLLSQVALASSSS
B30: il10ra_site1_sap_14_mot_HHH_b2_00943_af2_000000149_0001_1_17_H_._HHH_b1_07595_0001_0000100001_0000001_0_0001 (protein)
chain: SSSSSDETHELYRLLKEAMELAAEGNPEEAREVLEEAEELAREAGDRVLLVVIETVLRRISSSSS
B31: il10ra_site1_sap_15_mot_HHH_b1_06256_000000091_0001_42_58_H_._ems_3hM_3301_0001_0000100003_0000002_0_0001 (protein)
chain: SSSSSSEEEEIEELLKEAEELGKEEAERAARALLEAAERGLVSEELARAALRLLRQQVKWSSSSS
B32: il10ra_site1_normal_mot_HHH_b1_02062_000000185_0001_1_20_H_._HHH_b2_01378_0001_0000100004_0000001_1 (protein)
chain: SSSSDEEREVYELSREAAELNSEGDPEEARKVLEEAKEIAEEINNELLLFQLEFLERIVNSSSSS
B33: il10ra_site1_sap_15_mot_05ca327611f5605f0dd8494b449afcbf_0001_1_000000248_0001_35_51_H_._HHH_b1_07234_af2_0001_0000300013_0000001_0_0001 (protein)
chain: SSSSDEEAREAYELSREAVELDSDGNREEAEEVAEEAERLAKEAGNRVVLVVIRWLLRRIGSSSS
B34: il10ra_site1_normal_mot_HHH_b2_02337_000000026_0001_38_52_H_._HHH_b2_03301_0001_0000100010_0000001_0 (protein)
chain: SSSSDEEERVKELLEEAQELIEEGNPEEAAEVLQEALRLILELGDEELLRELWELVQELYSSSSS
B35: il10ra_site1_sap_21_mot_HHH_b1_06625_000000108_0001_1_15_H_._HHH_b1_00925_0001_0000300005_0000001_0_0001_af2pred_0001 (protein)
chain: SSSSDEEEEELKELLKRLEQLVEEGNREEFIRLYRRVAKLAAELNDEEVLRLLVELLRKADSSSS
B36: il10ra_site1_normal_mot_HHH_b1_07380_000000129_0001_1_20_H_._HHH_b2_04624_0001_0000100005_0000001_0 (protein)
chain: SSSSSDAAEELYRLSREAAELLAEGNPEEAERVAQEAFELAEEAGDEVLLFAIELLLRDISSSSS
B37: il10ra_site1_normal_mot_HHH_b1_06667_af2_000000019_0001_42_58_H_._HHH_b2_04021_af2_0001_0000400012_0000001_0 (protein)
chain: SSSSSDEHYRRNLRRFLKLLKEQGDEEALRSLLRAAKEVAKALNDEELEEEVEEILRELKSSSSS

What follows are binders tested against il10ra, Q13651 (assay: yeast display titration).

Apparent Kd, inactive:
B1 no binding seen
B2 no binding seen
B3 no binding seen
B4 no binding seen
B5 no binding seen
B6 no binding seen
B7 no binding seen
B8 no binding seen
B9 no binding seen
B10 no binding seen
B11 no binding seen
B12 no binding seen
B13 no binding seen
B14 no binding seen
B15 no binding seen
B16 no binding seen
B17 no binding seen
B18 no binding seen
B19 no binding seen
B20 no binding seen
B21 no binding seen
B22 no binding seen
B23 no binding seen
B24 no binding seen
B25 no binding seen
B26 no binding seen
B27 no binding seen
B28 no binding seen
B29 no binding seen
B30 no binding seen
B31 no binding seen
B32 no binding seen
B33 no binding seen
B34 no binding seen
B35 no binding seen
B36 no binding seen
B37 no binding seen

A stretch from the list above, as a working copy:
Apparent Kd, inactive:
B30 no binding seen
B31 no binding seen
B32 no binding seen
